## Library screen at single concentrations

Amino acid sequences for entries named in this document (tags omitted). Residues count along the entry.
UniProt Q4DA54, 1-478: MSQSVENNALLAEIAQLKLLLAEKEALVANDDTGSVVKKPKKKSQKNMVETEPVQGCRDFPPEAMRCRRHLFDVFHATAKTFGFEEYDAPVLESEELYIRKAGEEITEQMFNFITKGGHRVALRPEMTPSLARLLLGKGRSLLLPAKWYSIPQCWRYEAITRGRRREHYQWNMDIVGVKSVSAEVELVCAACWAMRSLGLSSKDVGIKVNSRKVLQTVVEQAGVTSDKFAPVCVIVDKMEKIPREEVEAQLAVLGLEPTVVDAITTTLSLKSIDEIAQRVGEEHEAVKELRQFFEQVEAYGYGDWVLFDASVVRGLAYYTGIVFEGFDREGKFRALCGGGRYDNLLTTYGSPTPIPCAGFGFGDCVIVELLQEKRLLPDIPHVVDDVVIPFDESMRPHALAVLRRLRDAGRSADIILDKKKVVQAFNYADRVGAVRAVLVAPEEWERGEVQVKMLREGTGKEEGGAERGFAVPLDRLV
UniProt A4I591, 1-473: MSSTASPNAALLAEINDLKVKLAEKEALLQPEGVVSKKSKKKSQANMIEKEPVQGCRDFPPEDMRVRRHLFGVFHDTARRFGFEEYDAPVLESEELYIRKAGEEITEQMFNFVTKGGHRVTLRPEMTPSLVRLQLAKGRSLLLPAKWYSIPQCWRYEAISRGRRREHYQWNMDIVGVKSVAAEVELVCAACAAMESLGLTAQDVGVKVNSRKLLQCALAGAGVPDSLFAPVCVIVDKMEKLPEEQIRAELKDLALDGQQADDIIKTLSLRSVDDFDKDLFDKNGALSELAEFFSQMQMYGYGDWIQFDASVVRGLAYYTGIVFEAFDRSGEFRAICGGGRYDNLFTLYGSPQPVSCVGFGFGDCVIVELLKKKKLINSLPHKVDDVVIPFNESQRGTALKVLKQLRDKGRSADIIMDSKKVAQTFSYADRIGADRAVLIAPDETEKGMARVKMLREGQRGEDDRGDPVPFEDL

Source: ChEMBL document CHEMBL3988442, “University of Dundee, Small-Polar-MMV Screening Library” (2021).

Toxoplasma: 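Assay of Toxoplasma gondii numbers, read through their beta-galactosidase reporter with a colour substrate. Concentration: 10 µM. The record gives no direction; the compounds picked for IC50 retests had high values, so higher reads as fewer parasites. About 67,000 compounds were tested under these conditions; 0.38% (about 260) showed 50% or more at least once.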
TcHisRS: 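Enzyme assay of histidyl-tRNA synthetase; the read-out is not stated. Target: Histidine-tRNA ligase, Trypanosoma cruzi CL Brener (UniProt Q4DA54). Tested at 30 µM. Direction is inferred from retests: higher values go with stronger inhibition. Of about 69,000 compounds tested this way, about 31 (0.045%) reached 50% or more in at least one test.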
LiHisRS: 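Enzyme assay of histidyl-tRNA synthetase; the read-out is not stated. Target: Histidine-tRNA ligase, Leishmania infantum (UniProt A4I591). Compounds at 30 µM. The record gives no direction; compounds that gave an IC50 in retests scored well above the rest, so higher reads as stronger inhibition. The assay is labelled LdHisRS but filed under L. infantum. Of about 69,000 compounds tested this way, about 410 (0.6%) reached 50% or more in at least one test.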
T. brucei: 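Whole-parasite assay of Trypanosoma brucei over 72 hours; the read-out is not stated. Compounds at 30 µM. Higher reads as stronger inhibition (inferred: compounds with an IC50 in retests scored well above the rest). Values scatter widely below zero; nearly all retest evidence comes from the higher of the two concentrations used. Size under these conditions: about 64,000 compounds, about 940 of them at 50% or above in at least one test.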

The filed quantity is “Percent Effect” (%).
The controls that fix the scale are not given in the record; negative values are as filed.
This is an unselected part of the compounds tested.
A dash means the value is not listed here; it may have been measured.

structure | Toxoplasma | TcHisRS | LiHisRS | T. brucei
Cn1nccc1C(=O)N1CC[C@]2(C[C@H](OCc3ccccn3)CO2)C1 | - | 9.804 | 22 | -
Cc1cccc(OCC(=O)N(Cc2ccncc2)C2CC2)c1 | -11.21 | 10.98 | 8.511 | -35.99
CCn1ncc(S(=O)(=O)N[C@@H]2CC[C@@H](n3ccnc3C)[C@@H]2O)c1C | 4.427 | 7.28 | 12.95 | 5.515
CN1C[C@H](O)[C@]2(CCN(C(=O)NCc3ccccc3)C2)S1(=O)=O | -13.61 | 0 | 8.247 | 19.9
O=C(O)C(F)(F)F.c1cncc(CN2Cc3nccn3CC(Cn3cncn3)C2)c1 (stereo not shown) | 10.55 | - | - | -73.02
CCn1ncc2c1CCCC2NCc1ccc(OC)c(C)c1 (stereo not shown) | - | 3.008 | 10.11 | 15.33
CC(C)N(CCNC(=O)N1CCCC(N(C)C)C1)C1CC1 (stereo not shown) | 0 | 1.622 | 30.14 | -26.45
O=c1cc(CN2CC[C@@]3(O)CCCC[C@H]3C2)c2cccc3c2n1CCC3 | - | 10.26 | 40.82 | -
COc1cccc(C(O)CN2CCN(C(=O)CCC(C)C)CC2)c1 (stereo not shown) | -17.69 | 8.046 | 2.564 | -
Cc1nnc(NC(=O)NCC(C)N2CCOCC2)s1 (stereo not shown) | 1.705 | 8.333 | 9.91 | 3.66
CCc1nc(C2CCCN(C(=O)c3cccc(C(N)=O)c3)C2)no1 (stereo not shown) | 4.856 | 7.289 | 15.04 | -
CN(Cc1ccccc1)c1ncccc1CNC1CCSCC1 | - | 11.49 | 9.677 | -7.122
Cn1ccc(C(=O)NCc2ccc(N3CCCCC3)nc2)cc1=O | 8.519 | 4.52 | 12.07 | -0.3193
Cc1ccccc1OC1CCN(CC(=O)Nc2cnn(C)c2C)CC1 | - | 6.923 | 11.27 | -
CC1CCCN(C(=O)CCc2cccnc2)C1 (stereo not shown) | - | 4.511 | -14.61 | -33.07
NCc1cn(-c2ccccc2C(=O)NCc2ccccc2)cn1 | -9.605 | 1.075 | 11.43 | -5.422
Cn1cc(CN2CC[C@@H]3[C@@H]2CCN3Cc2ccc3c(c2)OCO3)cn1 | - | 6.796 | 17.48 | -
[H][C@@]12CCCO[C@]1([H])[C@H](OCC1CCOCC1)CN2C(=O)c1ccc(C)o1 | -18.31 | - | - | 1.503
O=C1CC(NS(=O)(=O)N2CCOCC2)CN1Cc1ccc(F)cc1 (stereo not shown) | 5.652 | 2.809 | 10.26 | 6.751
COc1cc(CCC(=O)NC(C)C)ccc1OCC(F)(F)F | -4.299 | 2.312 | 4.386 | -0.9451
CC(C)S(=O)(=O)CCN1CCN(C(C#N)c2ccccc2)CC1 (stereo not shown) | - | 5.941 | 10.87 | -25.61
CN(C(=O)CCC(F)(F)F)c1cccc2ncccc12 | 1.401 | 5.844 | 8.065 | -1.088
CCS(=O)(=O)N[C@H]1CN(CC(C)(C)N2CCOCC2)C[C@@H]1C1CC1 | 1.877 | 2.051 | 6.122 | -26.13
CCN(CCNC(=O)c1ccccc1OCCOC)C1CC1 | -2.306 | 0.3759 | 32.43 | -41.43
O=C(NCc1ccnc(-n2cccn2)c1)C1CC(=O)N(CC2CC2)C1 (stereo not shown) | 5.121 | 7.289 | 11.5 | -
CCc1nccn1-c1nccnc1C1CCCN(C(=O)COC)C1 (stereo not shown) | 22.08 | 6.844 | 8.966 | -10.68
COc1ccnc(CNc2cc(C3CC3)ncn2)c1 | 14.29 | 11.76 | 16.67 | -41.6
O=C(Nc1ccc(-n2cccn2)c(F)c1)C1CCN(C(=O)C2CC2)CC1 | 6.923 | 5.759 | 15.52 | -37.94
C[C@]1(O)CCN(Cc2cccnc2)C[C@@H]1Oc1cccc(F)c1 | 10.08 | 5.495 | 13.04 | 24.46
CCn1c(N)nc2cc(C(=O)N3CCN(CC(F)(F)F)CC3)cnc21 | 16.4 | 0.5405 | 8.219 | -39.1
CS(=O)(=O)NCC1CCCN(C(=O)c2ccc3c(c2)CCC3)C1 (stereo not shown) | 9.783 | 5.155 | 16.13 | -32.04
Cc1noc([C@@H]2CCO[C@@H]3CCN(Cc4cccs4)C[C@@H]32)n1 | - | 7.563 | -6.422 | -
COC(=O)C1Cc2nc[nH]c2CN1Cc1ccc(Sc2ncccn2)o1 (stereo not shown) | -4.407 | 5.82 | 8.824 | -21.18
O=C1CC(C2CCCCC2)c2c(n(C3CCCC3)[nH]c2=O)N1 (stereo not shown) | -25.55 | 5.366 | 3.39 | -23.91
O=C(c1cnn(-c2ccccc2F)c1)N1CCN(CCO)CC1 | -2.093 | -0.4149 | 6.796 | 1.358
Cc1cc(NCc2ccc(S(N)(=O)=O)cc2)nc(C)n1 | 9.387 | 9.231 | 16.33 | 11.76
COCC[C@]1(O)CCN(Cc2nc(C(C)C)cs2)C[C@H]1C | 13.85 | 3.627 | 21.51 | -0.3665
CCS(=O)(=O)NC[C@]12COC[C@H]1CN(Cc1cccnc1OC)C2 | - | 6.098 | 25.64 | -
CN1CCC(Cc2noc(-c3cccc4c3OCC4)n2)CC1 | 2.426 | 3.96 | 18.48 | 5.217
Cc1nn(Cn2ccc(C(=O)N3CCC(C)CC3)n2)c(C)c1Cl | 11.4 | 8.247 | 21.84 | -23.66

The first 4 entries again:

{"structure": "Cn1nccc1C(=O)N1CC[C@]2(C[C@H](OCc3ccccn3)CO2)C1", "TcHisRS": 9.804, "LiHisRS": 22}
{"structure": "Cc1cccc(OCC(=O)N(Cc2ccncc2)C2CC2)c1", "Toxoplasma": -11.21, "TcHisRS": 10.98, "LiHisRS": 8.511, "T. brucei": -35.99}
{"structure": "CCn1ncc(S(=O)(=O)N[C@@H]2CC[C@@H](n3ccnc3C)[C@@H]2O)c1C", "Toxoplasma": 4.427, "TcHisRS": 7.28, "LiHisRS": 12.95, "T. brucei": 5.515}
{"structure": "CN1C[C@H](O)[C@]2(CCN(C(=O)NCc3ccccc3)C2)S1(=O)=O", "Toxoplasma": -13.61, "TcHisRS": 0, "LiHisRS": 8.247, "T. brucei": 19.9}